From patent US20060160756A1, “Treatment and prevention of multi-drug resistance” (priority 2004, published 2006)
At least one structure is not confirmed: it was looked up by name or label, or the drawing left a doubt.

Assay: Pharmacokinetics of dofediquar after single oral administration to fasted healthy male volunteers
Format: in vivo, healthy male Japanese adults
Settings: mean ± S.D.
Description: The pharmacokinetic parameters of dofediquar (MS-209) are investigated in fasted healthy male Japanese adults. The study design is described in Table 2. The plasma concentrations of dofediquar after single oral administration of increasing doses from 100 to 1200 mg to fasted healthy male Japanese adults is illustrated in FIGS. 2 and 3.

## O=C(C(c1ccccc1)c1ccccc1)N1CCN(CC(O)COc2cccc3ncccc23)CC1 (centres unmarked) [dofediquar]
100 mg single oral dose
  Vd/F: 190.7 ± 66.1 L
300 mg single oral dose
  Vd/F: 78.9 ± 25.3 L
600 mg single oral dose
  Vd/F: 65.2 ± 14.4 L
900 mg single oral dose
  Vd/F: 54.1 ± 12.3 L
1200 mg single oral dose
  Vd/F: 56.4 ± 10.4 L
